The values that follow come from PubChem BioAssay AID1487 (National Center for Advancing Translational Sciences (NCATS), 2009).

The other results are listed elsewhere or left out. Shown are side measurements of this screen, not its main read-out; they come without a call. The list favours compounds with an active or inconclusive main result. The note in brackets gives the kind of curve behind each potency; many fits are weak.

This assay can be described thus: qHTS Assay for Modulators of Lamin A Splicing. Particulars: HeLa LMNA splicing GFP/RFP minigene ratio, 48 h. In outline:
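Read-out is the ratio of GFP to DsRed2 object intensity, acquired by 488 nm laser-scanning cytometry on HeLa lamin A-EGFP minigene reporter cells. Compound incubation 48 hrs at 37 °C in Opti-MEM with 2% FBS; DMSO 0.5% final.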

Where [1] appears, read: measured here: GFP splicing reporter channel.
Where [2] appears, read: measured here: RFP viability control channel.

On to `Cc1nc(-c2cccc(NS(=O)(=O)c3ccc4ccccc4c3)c2)cs1`, for which the AC50 runs as follows: under setting [1], 35.5 µM [rising, single point]; under setting [2], 31.6 µM [rising, single point].

For `COc1ccc(-n2c(SCc3ccccc3F)nc3c([nH]c4ccccc43)c2=O)cc1`, the AC50 runs as follows: under setting [1], 22.4 µM [falling, partial curve, poor fit]; under setting [2], 35.5 µM [falling, single point].

In the case of `Nc1ccc(S(=O)(=O)Nc2cnc3ccccc3n2)cc1`, under setting [2], the AC50 is 0.0562 µM [rising, full curve, poor fit].

Consider `Nc1c(C(=O)Nc2ccc(Br)cc2)sc2nc(-c3ccco3)ccc12`, for which the AC50 by setting is: under setting [1], 7.08 µM [rising, partial curve]; under setting [2], 12.6 µM [rising, partial curve].

As for `CCOC(=O)CNC(=O)c1sc(NC(=O)c2ccccc2)nc1C`, the AC50 runs as follows: under setting [1], 15.8 µM [rising, single point]; under setting [2], 20 µM [rising, single point].

With `CCn1cc(C2=NOC(C(=O)Nc3ccc4c(c3)OCO4)C2)c(C)n1` (stereo not drawn), the AC50 is 11.2 µM [rising, single point] under setting [1] and 14.1 µM [rising, partial curve] under setting [2].

Take `O=C(CSc1nnc(SCc2ccc(Cl)cc2)s1)N1CCOCC1`: the AC50 under setting [2] was 3.55 µM [falling, single point].

Turning to `COc1cccc(/C=N/NC(=O)CSCC(=O)Nc2ccccc2)c1O`, the AC50 under setting [2] was 28.2 µM [rising, single point].

Turning to `COc1ccc(CCNC(=O)CS(=O)Cc2nc(-c3ccc(C)cc3)oc2C)c(OC)c1` (stereo not drawn), the AC50 under setting [1] is 0.00447 µM [rising, full curve, poor fit].

On to `COc1ccc(C)cc1NC(=O)C(Sc1ccccc1)c1ccccc1` (stereo not drawn), for which the AC50 reads like this: under setting [1], 11.2 µM [rising, partial curve]; under setting [2], 17.8 µM [rising, partial curve].

As to `Cc1ccc(-n2c(C)cc(/C=N/NC(=O)c3ccncc3)c2C)cc1C`, the AC50 is, setting by setting: under setting [1], 11.2 µM [rising, partial curve, poor fit]; under setting [2], 12.6 µM [rising, partial curve, poor fit].

For `C=CCN(CC=C)C(=S)NC(=O)c1ccc(OC)cc1`, the half-maximal activity concentration (AC50) under setting [1] is 0.0251 µM [rising, full curve, poor fit].

Consider `Cc1cc2ncn(/N=C/c3ccc([N+](=O)[O-])s3)c2cc1C`, for which the half-maximal activity concentration (AC50) reads like this: under setting [1], 35.5 µM [falling, single point]; under setting [2], 20 µM [falling, single point].

With `O=c1[nH]c(=O)n(C2CCCO2)cc1Br` (stereo not drawn), under setting [1], the AC50 was 11.2 µM [falling, partial curve].

As for `O=c1[nH]c(CN2CCN(S(=O)(=O)c3cccs3)CC2)nc2c(Br)cc(Br)cc12`, the AC50 under setting [1] is 35.5 µM [falling, single point].

For `Cc1ccc(-n2c(C)cc(/C([O-])=C(/C(=S)Nc3ccc(F)c(Cl)c3)[n+]3ccccc3)c2C)cc1`, under setting [2], the AC50 was 15.8 µM [rising, single point].

For `Cc1cccc2cc(C3CC(c4ccco4)=NN3C(=O)CCC(=O)O)c(Cl)nc12` (stereo not drawn), the AC50 reads like this: under setting [1], 22.4 µM [falling, single point]; under setting [2], 35.5 µM [falling, single point].

In the case of `Nc1nc(SCC(=O)Nc2ccc([N+](=O)[O-])cc2Br)n[nH]1`, the AC50 under setting [2] is 17.8 µM [rising, single point].

For the compound `CNC(=O)c1sc(N2N=C3/C(=C/c4ccccc4)CCCC3C2c2ccccc2)nc1C` (stereo not drawn), the AC50 is 8.91 µM [falling, partial curve] under setting [1] and 20 µM [falling, partial curve, poor fit] under setting [2].

For `Cc1cccc(-c2nc3scc(CCNC(=O)c4ccccc4Cl)n3n2)c1`, the half-maximal activity concentration (AC50) under setting [1] is 14.1 µM [falling, single point].

For `COc1ccc(NC(=S)Nc2cccc(S(=O)(=O)N3CCCCC3)c2)cc1`, the AC50 reads like this: under setting [1], 11.2 µM [rising, single point]; under setting [2], 35.5 µM [rising, single point].

Turning to `COc1ccc(Cl)cc1N1CC(C(=O)Nc2nccs2)CC1=O` (stereo not drawn), the AC50 under setting [1] is 10 µM [falling, partial curve, poor fit].

As to `CC(=O)/C(=N\Nc1ccc(Cl)cc1Cl)Sc1cccc2cccnc12`, under setting [2], the AC50 is 35.5 µM [rising, single point].

As to `CCN(CC)C(=O)CSc1nc2ccccc2c(=O)n1CC1CCCCC1`, the AC50 under setting [2] is 35.5 µM [rising, single point].

`O=C(CSc1ccccc1)Nc1ccc(S(=O)(=O)Nc2ncccn2)cc1`: the AC50 under setting [1] was 0.0631 µM [falling, full curve, poor fit].

For the compound `O=S(=O)(c1ccc(Cl)cc1)N1CCN(C(=S)Nc2ccc(F)c(Cl)c2)CC1`, the AC50 under setting [2] was 10 µM [rising, partial curve].

In the case of `COc1ccnc(-n2cccc2C=O)c1C#N`, the half-maximal activity concentration (AC50) under setting [1] was 3.98 µM [rising, single point].

Turning to `O=C(COc1ccc(F)cc1)Nc1ccc2nc(SCc3ccccc3)sc2c1`, the AC50 reads like this: under setting [1], 12.6 µM [falling, single point]; under setting [2], 25.1 µM [falling, single point].

As to `COc1ccc(Cc2nnc(N/N=C/c3ccc(O)cc3O)[nH]c2=O)cc1OC`, the AC50 under setting [2] is 35.5 µM [rising, partial curve, poor fit].

For `O=c1c2ccccc2c(-c2ccccc2)nn1Cc1ccc(Cl)cc1`, the concentration at half-maximal activity (AC50) under setting [2] was 11.2 µM [falling, partial curve].

In the case of `CCN(CC)C(=O)CSc1ncnc2c(-c3ccc(OC)cc3)nsc12`, the AC50 under setting [1] was 0.0316 µM [falling, full curve, poor fit].

Turning to `N#CCSc1nnc(C2CCCCC2)n1Cc1ccccc1`, under setting [1], the AC50 was 22.4 µM [rising, single point].

As to `O=C1C=CC(=O)N1c1ccc(N2CCCCC2)cc1`, the AC50 is 8.91 µM [falling, partial curve] under setting [1] and 7.08 µM [falling, partial curve, poor fit] under setting [2].

In the case of `CCC(C)NC(=O)Cn1cc(S(=O)(=O)N2CCN(c3ccccc3F)CC2)c2ccccc2c1=O` (stereo not drawn), the AC50 under setting [1] is 14.1 µM [falling, single point].

For `COC(=O)c1cc(OC)c(OC)cc1NCC(=O)Nc1ccc(C)cc1`, under setting [2], the AC50 was 11.2 µM [rising, partial curve, poor fit].
